Source: publication PMC5011719, “The amyloid fold of Gad m 1 epitopes governs IgE binding” (Scientific Reports, 2016)
Results are given in words; binding and its absence hold for the method and conditions named.

What was measured:
[1] = target: rGad m 1 wt (recombinant Gad m 1, Atlantic cod beta-parvalbumin) (Atlantic cod) (UniProt A5I874); test: ThT fluorescence kinetics of amyloid formation; 150 μM protein in 50 mM Tris-HCl, pH 7.5, 0.1 M NaCl, 5 mM CaCl2, 10 μM ThT, 37 °C, orbital shaking; both purified
[2] = target: rGad m 1 wt (recombinant Gad m 1, Atlantic cod beta-parvalbumin) (Atlantic cod) (UniProt A5I874); test: dynamic light scattering; 50 mM Tris-HCl, pH 7.5, 2 mM Ca2+, 160 μM protein; hydrodynamic radius; both purified

B1: rGad m 1 wt (recombinant Gad m 1, Atlantic cod beta-parvalbumin) (natural protein, UniProt A5I874 1-109, looked up)
chain: MAFAGILNDADITAALAACKAEGSFDHKAFFTKVGLAAKSSADIKKVFEIIDQDKSDFVEEDELKLFLQNFSAGARALSDAETKVFLKAGDSDGDGKIGVDEFGAMIKA
notes: Gad m 1, Atlantic cod beta-parvalbumin; synthetic ORF in pET15b; Monomer in Ca2+, forms amyloids in EDTA; also called rGad wt; not shown: 6XHis, N-terminal, kept
[1]
  binding: no binding (condition: with 5 mM Ca2+; 150 μM)
[2]
  binding: no binding (condition: with 2 mM Ca2+; 160 μM protein)
